In paper PMC5316841:
Results are given in words; binding and its absence hold for the method and conditions named. Binding seen in cells or lysates may run through a third protein. Some entries that bind do so weakly or less than the wild type.

The chains behind the UniProt entries cited, without tags or fusion partners. Where a name states a change or a piece, a line headed by the entry shows the natural chain unless it says otherwise.
UniProt Q969H0: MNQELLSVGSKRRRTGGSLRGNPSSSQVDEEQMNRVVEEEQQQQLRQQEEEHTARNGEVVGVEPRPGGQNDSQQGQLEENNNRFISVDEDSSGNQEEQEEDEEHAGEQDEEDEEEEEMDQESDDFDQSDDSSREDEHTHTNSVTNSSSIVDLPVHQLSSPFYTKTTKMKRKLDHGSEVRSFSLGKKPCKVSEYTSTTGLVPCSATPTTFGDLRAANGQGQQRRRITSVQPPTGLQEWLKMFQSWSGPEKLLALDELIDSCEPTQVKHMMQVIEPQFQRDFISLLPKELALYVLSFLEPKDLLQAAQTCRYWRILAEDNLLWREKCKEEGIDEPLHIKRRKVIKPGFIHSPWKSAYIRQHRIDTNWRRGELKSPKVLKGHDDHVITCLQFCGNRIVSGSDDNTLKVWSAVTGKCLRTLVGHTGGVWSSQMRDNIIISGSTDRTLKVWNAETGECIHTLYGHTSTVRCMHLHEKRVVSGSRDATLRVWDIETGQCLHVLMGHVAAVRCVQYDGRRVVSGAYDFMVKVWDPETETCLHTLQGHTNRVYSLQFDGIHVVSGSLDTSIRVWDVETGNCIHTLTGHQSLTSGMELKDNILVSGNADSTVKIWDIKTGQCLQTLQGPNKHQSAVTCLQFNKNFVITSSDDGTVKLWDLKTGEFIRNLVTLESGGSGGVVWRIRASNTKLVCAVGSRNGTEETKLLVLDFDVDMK
UniProt Q00613: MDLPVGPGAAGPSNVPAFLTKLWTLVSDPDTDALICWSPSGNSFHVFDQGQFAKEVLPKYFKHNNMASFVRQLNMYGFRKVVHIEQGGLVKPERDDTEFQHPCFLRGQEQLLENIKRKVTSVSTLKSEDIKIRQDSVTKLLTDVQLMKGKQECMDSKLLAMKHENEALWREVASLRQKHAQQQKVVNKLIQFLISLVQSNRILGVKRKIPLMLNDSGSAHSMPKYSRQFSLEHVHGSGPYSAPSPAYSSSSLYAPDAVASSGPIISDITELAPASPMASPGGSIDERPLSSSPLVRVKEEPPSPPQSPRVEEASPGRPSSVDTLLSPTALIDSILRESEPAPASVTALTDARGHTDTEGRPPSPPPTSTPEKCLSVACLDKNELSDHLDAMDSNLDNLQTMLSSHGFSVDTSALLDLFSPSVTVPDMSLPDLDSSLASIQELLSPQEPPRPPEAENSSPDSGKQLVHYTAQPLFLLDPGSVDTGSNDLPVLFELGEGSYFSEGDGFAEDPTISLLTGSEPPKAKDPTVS

Biological target: Fbxw7-FLAG (UniProt Q969H0)
Test: co-IP; hsf1-/- MEFs co-expressing Fbxw7-FLAG and WT HSF1 or S303A; lysis in 50 mM Tris pH 7.4, 10% glycerol, 150 mM NaCl, 1 mM EDTA, 1% Triton X-100; anti-FLAG M2 magnetic beads overnight at 4 °C; HSF1 detected by immunoblot

binding	Substance
binds	HSF1 S303A mutant (from UniProt Q00613 1-529)
binds	heat shock transcription factor 1 (HSF1), wild type (from UniProt Q00613 1-529)
